Reference: publication PMC9223397 (International Journal of Molecular Sciences, 2022)

Test system: SMI-32-positive MNs in spinal cord organotypic cultures
Assay: Spinal cord organotypic cultures (SCOC) under chronic excitotoxicity (THA)
Type: cell-based, Sprague–Dawley rats
Conditions: THA 100 µM, 28 DIV; 5 µM, positive control
Experimental: SCOCs from lumbar sections of 8-day-old Sprague–Dawley rats were prepared as previously described. Briefly, the spinal cord was collected and cut into 350 μm thick transverse sections with a McIlwain Tissue Chopper. Four lumbar sections were transferred onto Millicell-CM nets (0.4 μm, PICM03050, Millipore) in medium (50% (v/v) minimal essential medium (MEM, M5775, Sigma), 2 mM glutamine, 25 mM HEPES, 25% (v/v) Hank’s Balanced Salt Solution (HBSS^−/−;14175, Gibco; UK) supplemented with 25.6 mg/mL glucose, and 25% (v/v) heat-inactivated horse serum (26050-088, Gibco; New Zealand), pH = 7.2). Cultures were maintained at 37 °C in a 5% CO2 humidified cabin and left to stabilize. After 7 days in vitro (DIV), DL-threo-β-hydroxyaspartic acid (THA; 100 μM: H2775, Sigma Aldrich, St. Louis, MI, USA) was added to induce chronic excitotoxicity. The neuroprotective effect of each Sig-1R ligand was assessed by its coaddition to the culture with THA and renewing at each medium change. […] Comparisons were performed against slices with vehicle as negative control and with the addition of riluzole (5 μM) as positive control. […]
Slices were maintained for 28 DIV and then fixed with 4% PFA. […] MN survival was assessed by counting all SMI-32-positive neurons in each spinal cord using the Cell Counter plugin of ImageJ software.

Nc1nc2ccc(OC(F)(F)F)cc2s1 [Riluzole, reference compound]
Number of SMI-32-positive MNs vs THA condition: preserved MNs at levels of control cultures
